In article PMC5393896:
Results are given in words; binding and its absence hold for the method and conditions named. In cells and extracts the contact can be indirect. Some results given as binding are weak or reduced against the parent protein; the word gives no strength.

Protein sequences, listed by entry. Tags and fused reporters are not part of them.
UniProt P05453: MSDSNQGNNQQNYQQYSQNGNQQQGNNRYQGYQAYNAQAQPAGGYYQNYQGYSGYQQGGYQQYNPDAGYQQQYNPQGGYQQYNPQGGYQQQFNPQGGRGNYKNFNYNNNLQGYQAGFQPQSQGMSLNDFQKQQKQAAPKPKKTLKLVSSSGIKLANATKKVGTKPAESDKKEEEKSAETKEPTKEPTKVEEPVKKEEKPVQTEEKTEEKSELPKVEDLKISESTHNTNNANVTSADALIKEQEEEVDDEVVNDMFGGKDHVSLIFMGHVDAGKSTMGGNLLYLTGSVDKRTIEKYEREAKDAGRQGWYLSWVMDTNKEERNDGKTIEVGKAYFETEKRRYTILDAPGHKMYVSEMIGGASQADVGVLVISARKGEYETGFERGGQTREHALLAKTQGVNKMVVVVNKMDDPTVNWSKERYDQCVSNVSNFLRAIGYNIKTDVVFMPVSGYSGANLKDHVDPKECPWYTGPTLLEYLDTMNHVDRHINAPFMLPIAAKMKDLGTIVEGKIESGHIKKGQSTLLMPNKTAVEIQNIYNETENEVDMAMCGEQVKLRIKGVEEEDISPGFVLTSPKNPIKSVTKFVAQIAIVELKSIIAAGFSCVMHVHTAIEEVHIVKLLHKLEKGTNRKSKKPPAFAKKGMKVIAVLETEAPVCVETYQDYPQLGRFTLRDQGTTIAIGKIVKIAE

Target: Sup35 translation termination factor tagged at its C-terminus with a tandem affinity purification (TAP) tag (S. cerevisiae) (UniProt P05453)
Test: co-IP; Sup35-TAP immunoprecipitated from wild-type and tsa1 tsa2 mutant extracts; immunoblot with antibodies against Abp1, Arp3, Sap190 and Act1

B1: Abp1 actin nucleation promoting factor (protein, UniProt P15891 1-592)
chain: MALEPIDYTTHSREIDAEYLKIVRGSDPDTTWLIISPNAKKEYEPESTGSSFHDFLQLFDETKVQYGLARVSPPGSDVEKIIIIGWCPDSAPLKTRASFAANFAAVANNLFKGYHVQVTARDEDDLDENELLMKISNAAGARYSIQTSSKQQGKASTPPVKKSFTPSKSPAPVSKKEPVKTPSPAPAAKISSRVNDNNDDDDWNEPELKERDFDQAPLKPNQSSYKPIGKIDLQKVIAEEKAKEDPRLVQKPTAAGSKIDPSSDIANLKNESKLKRDSEFNSFLGTTKPPSMTESSLKNDDDKVIKGFRNEKSPAQLWAERKAKQNSGNAETKAEAPKPEVPEDEPEGEPDVKDLKSKFEGLAASEKEEEEMENKFAPPPKKSEPTIISPKPFSKPQEPVKAEEAEQPKTDYKKIGNPLPGMHIEADNEEEPEENDDDWDDDEDEAAQPPLPSRNVASGAPVQKEEPEQEEIAPSLPSRNSIPAPKQEEAPEQAPEEEIEEEAEEAAPQLPSRSSAAPPPPPRRATPEKKPKENPWATAEYDYDAAEDNELTFVENDKIINIEFVDDDWWLGELEKDGSKGLFPSNYVSLGN
  binding: binds
